Values from PubChem BioAssay AID686938 (Drosophila RNAi Screening Center, 2013).
The screen tested about 23,000 reagents; below is an unselected part of those that have a named target and a result. Of all reagents, 75 (0.33%) were called active. 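Raw plate signals without normalisation; calls rest on plate z-scores that were not deposited; ratio present for only 364 wells.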 A number with no mark means an inactive call. A plus sign joins genes that one reagent is predicted to hit. No sequences are given here. Not stated in the record: the dose of the treatment.

Purpose: 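Knock-downs reducing store-operated calcium influx in Drosophila cells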 (primary screen)
Cell system: Drosophila S2R+ cells
Reagents: long dsRNA against Drosophila genes, about 0.25 µg dsRNA per well, roughly 10,000 cells
Duration: 5 days of knock-down before the calcium assay
Treatment: thapsigargin (SERCA pump blocker) to empty calcium stores; entry signal taken 4 min after adding it
Measurement: 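Duplicate raw fluo-4 intensities per well from a plate reader, at rest and four minutes after thapsigargin emptied calcium stores; entry-to-rest ratio filled for only some wells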
Scale: calcium entry signal: higher = stronger calcium signal after store depletion; resting calcium signal: higher = higher resting calcium signal
Call rule: 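Called when the plate z-score of the entry-to-rest ratio, mean of duplicates, falls below −3; wells with low overall dye signal (Fmax z below −2) or more than five off-targets excluded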
Meaning of the calls: active = strongly reduced calcium entry; inactive = no strong reduction

predicted target,PubChem SID,"calcium entry signal, replicate 1 (fluorescence units)","calcium entry signal, replicate 2 (fluorescence units)","resting calcium signal, replicate 1 (fluorescence units)","resting calcium signal, replicate 2 (fluorescence units)"
CG31326,SID104196324,1.88e7,3.06e7,9.64e6,5.06e7
"Brca2 (BRCA2, DNA repair associated)",SID104184011,4.17e7,4.42e7,2.19e7,2.09e7
"Brca2 (BRCA2, DNA repair associated)",SID104184012,4.19e7,4.85e7,2.18e7,2.14e7
CG3078,SID104198323,3.93e7,4.14e7,1.86e7,2.09e7
CG42374 + Mettl5,SID104190877,3.94e7,4.65e7,1.87e7,2.93e7
mRpL9 (mitochondrial ribosomal protein L9),SID104195470,3.44e7,4.74e7,1.72e7,7.25e7
Socs44A (Suppressor of Cytokine Signaling at 44A),SID104186620,4.09e7,4.41e7,1.93e7,1.82e7
CG31823,SID104181679,4.92e7,4.03e7,2.05e7,1.72e7
CG6470,SID104199786,3.47e7,3.38e7,1.64e7,1.47e7
Atet (ABC transporter expressed in trachea),SID104180055,1.85e7,1.97e7,9.99e6,1.07e7
RIC-3 (RIC3 acetylcholine receptor chaperone),SID104184035,3.74e7,,2.03e7,
RIC-3 (RIC3 acetylcholine receptor chaperone),SID104184335,5.68e7,6.35e7,2.76e7,2.55e7
put (punt),SID104196831,3.03e7,4.14e7,1.33e7,1.82e7
CG8281,SID104190768,3.17e7,4.09e7,1.45e7,1.81e7
wek (weckle),SID104183353,4.22e7,,2.21e7,
"ValRS-m (Valyl-tRNA synthetase, mitochondrial)",SID104190327,3.96e7,4.50e7,1.81e7,1.80e7
mRpS10 (mitochondrial ribosomal protein S10),SID104195349,3.77e7,4.72e7,1.71e7,7.53e7
RpL24-like (Ribosomal protein L24-like),SID104195903,2.18e7,2.34e7,1.42e7,1.52e7
l(2)09851 (lethal (2) 09851),SID104184650,3.99e7,4.29e7,2.02e7,2.01e7
CG32603,SID104199201,3.27e7,2.90e7,1.58e7,1.29e7
CG32603,SID104201293,3.35e7,2.68e7,1.69e7,1.23e7
CG42458,SID104188673,4.63e7,4.63e7,2.49e7,2.18e7
CG42458,SID104190127,4.59e7,4.03e7,2.96e7,1.82e7
CG42458,SID104202486,2.94e7,3.65e7,1.52e7,1.70e7
CG42458,SID104202618,3.38e7,3.87e7,1.70e7,1.61e7
CG32228,SID104201809,3.11e7,5.32e7,1.55e7,2.66e7
eIF4EHP,SID104193445,4.00e7,3.59e7,1.88e7,1.90e7
eIF4EHP,SID104194057,3.22e7,3.19e7,1.61e7,1.44e7
bark (bark beetle),SID104180427,3.65e7,3.51e7,1.83e7,1.64e7
CG32081,SID104189653,2.12e7,3.48e7,1.06e7,1.35e7
PpD5 (Protein phosphatase D5),SID104184433,3.48e7,4.11e7,1.52e7,1.61e7
PpD5 (Protein phosphatase D5),SID104202669,3.79e7,4.54e7,1.84e7,1.95e7

Single entries from the list.
Value of PpD5 (Protein phosphatase D5) [SID104202669] under “calcium entry signal, replicate 1 (fluorescence units)”: 3.79e7
Result of CG3078 [SID104198323] under “resting calcium signal, replicate 1 (fluorescence units)”: 1.86e7
RpL24-like (Ribosomal protein L24-like) [SID104195903], resting calcium signal, replicate 1 (fluorescence units) = 1.42e7
Result of CG32603 [SID104199201] under “calcium entry signal, replicate 2 (fluorescence units)”: 2.90e7
CG8281 [SID104190768], resting calcium signal, replicate 2 (fluorescence units) = 1.81e7
Entry for eIF4EHP [SID104193445] under “calcium entry signal, replicate 1 (fluorescence units)”: 4.00e7

Further entries follow.
predicted target,PubChem SID,"calcium entry signal, replicate 1 (fluorescence units)","calcium entry signal, replicate 2 (fluorescence units)","resting calcium signal, replicate 1 (fluorescence units)","resting calcium signal, replicate 2 (fluorescence units)"
Ret (Ret oncogene),SID104183201,3.17e7,,1.49e7,
Ret (Ret oncogene),SID104183202,6.35e7,5.27e7,2.88e7,2.19e7
CG34231,SID104185115,3.86e7,3.87e7,1.61e7,1.69e7
egr (eiger),SID104186025,3.19e7,3.46e7,1.60e7,1.69e7
LManV (Lysosomal alpha-mannosidase V),SID104183015,4.60e7,,2.18e7,
CG14185,SID104189976,3.05e7,4.69e7,1.54e7,1.98e7
CG10098,SID104192301,4.20e7,5.19e7,1.88e7,2.42e7
tau,SID104194361,2.71e7,4.00e7,1.48e7,1.69e7
tau,SID104202403,3.58e7,3.66e7,1.90e7,1.76e7
CG43897,SID104189965,3.11e7,5.09e7,1.68e7,2.35e7
CG43897,SID104190757,3.13e7,4.78e7,1.79e7,2.35e7
CG43897,SID104190759,3.10e7,4.72e7,1.65e7,2.16e7
CG43897,SID104201291,6.32e7,4.26e7,3.14e7,1.94e7
B-H2 (BarH2),SID104199127,2.49e7,2.01e7,1.64e7,1.20e7
B-H2 (BarH2),SID104202369,4.27e7,3.88e7,1.83e7,1.65e7
dia (diaphanous),SID104183311,3.87e7,5.55e7,2.01e7,2.68e7
CG42505 + CG42504 + CG31358,SID104195027,2.77e7,4.08e7,1.31e7,1.74e7
CG42505 + CG42504 + CG31358,SID104195100,3.55e7,1.84e7,1.67e7,9.84e6
CG42505 + CG42504 + CG31358,SID104195101,3.29e7,2.66e7,1.59e7,1.41e7
CG13842,SID104194484,5.17e7,7.91e7,2.16e7,2.97e7
Cpr64Aa (Cuticular protein 64Aa),SID104188252,3.25e7,2.95e7,1.72e7,1.52e7
clu (clueless),SID104186973,3.34e7,3.82e7,1.71e7,1.77e7
CG10274,SID104189508,1.19e7,4.59e7,1.13e7,2.91e7
Wnt5 (Wnt oncogene analog 5),SID104200092,3.72e7,3.35e7,1.82e7,1.48e7
Rpn12 (Regulatory particle non-ATPase 12),SID104191067,2.38e7,2.88e7,1.63e7,1.70e7
Ir56d (Ionotropic receptor 56d),SID104186382,5.47e7,5.65e7,2.02e7,2.58e7
Art8 (Arginine methyltransferase 8),SID104182322,3.11e7,4.40e7,1.67e7,1.99e7
CG32374,SID104190778,3.05e7,4.26e7,1.45e7,1.68e7
Lime (Linking immunity and metabolism),SID104186544,3.85e7,3.52e7,1.89e7,1.53e7
CR30029 (pseudo),SID104186516,2.79e7,2.86e7,1.37e7,1.30e7
Egm (Enigma),SID104187111,2.76e7,3.16e7,1.33e7,1.46e7
Egm (Enigma),SID104202219,1.43e7,2.50e7,8.41e6,1.14e7
CG43117,SID104193559,3.71e7,4.35e7,1.97e7,2.06e7
CG14983,SID104188233,3.83e7,4.98e7,1.94e7,2.24e7
CG15283,SID104181772,5.07e7,3.28e7,2.28e7,1.57e7
CG42564,SID104192310,2.89e7,2.44e7,1.44e7,1.31e7
CG13841,SID104194483,2.14e7,2.66e7,1.42e7,1.46e7
MtnA (Metallothionein A),SID104201295,2.15e7,2.46e7,1.16e7,1.18e7
spg (sponge),SID104194165,4.11e7,6.33e7,2.07e7,2.71e7
spg (sponge),SID104194673,3.68e7,5.65e7,1.91e7,2.46e7
CG11141,SID104185840,4.41e7,,2.18e7,
CG3651,SID104183522,4.59e7,5.29e7,2.21e7,2.22e7
Ocrl (Oculocerebrorenal syndrome of Lowe),SID104198368,3.60e7,4.85e7,1.77e7,2.41e7
